Laboratory results reported in article PMC6925144, “A prospective compound screening contest identified broader inhibitors for Sirtuin 1” (Scientific Reports, 2019).
Whole data set: some 3,200 compounds, median “TSA(without NAD+) / Primary screening (TSA) / delta Tm (K)” near -0.07, cut for the highest 2% near 0.37. Some of the results follow.

Amino acid sequences for entries named in this document (tags omitted). Residues count along the entry.
UniProt Q96EB6, 2-747 limits assumed: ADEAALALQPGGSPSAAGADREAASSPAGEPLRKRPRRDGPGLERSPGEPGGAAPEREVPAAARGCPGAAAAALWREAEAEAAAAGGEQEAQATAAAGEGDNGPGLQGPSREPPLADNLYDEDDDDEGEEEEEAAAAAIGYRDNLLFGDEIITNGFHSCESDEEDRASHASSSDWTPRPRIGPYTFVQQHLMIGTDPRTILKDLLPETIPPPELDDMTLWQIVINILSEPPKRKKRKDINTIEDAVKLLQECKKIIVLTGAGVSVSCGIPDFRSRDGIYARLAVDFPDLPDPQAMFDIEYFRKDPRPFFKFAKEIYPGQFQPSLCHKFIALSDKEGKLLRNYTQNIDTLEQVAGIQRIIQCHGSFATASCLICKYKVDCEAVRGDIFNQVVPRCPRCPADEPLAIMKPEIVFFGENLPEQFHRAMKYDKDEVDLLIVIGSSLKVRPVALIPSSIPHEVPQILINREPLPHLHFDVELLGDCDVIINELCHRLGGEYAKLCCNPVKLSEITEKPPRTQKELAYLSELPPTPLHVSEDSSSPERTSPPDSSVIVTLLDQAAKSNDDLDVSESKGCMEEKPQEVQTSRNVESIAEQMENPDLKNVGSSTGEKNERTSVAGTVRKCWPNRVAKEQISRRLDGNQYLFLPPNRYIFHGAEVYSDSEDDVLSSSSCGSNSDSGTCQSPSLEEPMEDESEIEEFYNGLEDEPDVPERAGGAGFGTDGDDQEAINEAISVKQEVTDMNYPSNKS

Molecular target: NAD-dependent deacetylase Sirtuin 1 (human, UniProt Q96EB6)
Assay: primary screen, delta tm
Set-up: single well (n = 1)
Settings: 10 µM
Procedure: A total of 3,192 compounds extracted from the proposed lists were first screened by thermal shift assay (TSA), which determined a melting temperature shift (ΔTm) of Sirtuin 1 upon the addition of a test compound at a concentration of 10 µM (n = 1) with primary hit criteria of ΔTm > 0.45 K or ΔTm < −1.5 K. Primary hits (48 compounds) were retested in the same assay at three concentrations (5, 10, 20 µM, n = 4) for hit confirmation and for dose-dependency check. Secondary hits (41 compounds) were checked their selectivity for Sirtuin 1 based on counterscreening on unrelated protein targets (bovine carbonic anhydrase (CA) and recombinant SH2 domain of hABL1 kinase (ABL1)) at three different concentrations (5, 10, 20 µM, n = 4), which yielded 38 hit compounds, hereafter referred to as TSA hits. The TSA screening above was conducted in the absence of NAD+.

Row | Compound | TSA(without NAD+) / Primary screening (TSA) / delta Tm (K)
1 | COc1ccc(-c2cc(C(=O)Nc3cc(Cl)ccc3C#N)c3ccccc3n2)cc1OC | -0.27 K
2 | O=c1cc(Cn2nnc3ccccc3c2=O)c2cc3c(cc2o1)CCC3 | -0.07 K
3 | CS(=O)(=O)c1ccc(NCCNC(=O)C23CC4CC(C2)CC(c2ccccc2)(C4)C3)c([N+](=O)[O-])c1 | 0.13 K
4 | O=C(CSc1nnc(Cc2ccccc2)o1)N1N=C(c2cccs2)CC1c1cccs1 (centres unmarked) | 0.12 K
5 | Cc1cc(C(=O)N2CCN(C(=O)Nc3cccc(NC(=O)c4ccncc4)c3)CC2)c(C)o1 | 0.12 K
6 | COCCCn1ccc(Nc2nc(C)nc3[nH]ccc23)n1 | -0.14 K
7 | CCC(C)NC(=O)CSc1nnc(-c2c[nH]c3ccccc23)n1Cc1ccco1 (centres unmarked) | 0.05 K
8 | CSc1ncc(C(=O)OCC(N)=O)n1-c1ccccc1 | -0.22 K
9 | COc1cccc(-c2nc(CSc3nnc(-c4ccco4)n3Cc3ccccc3)cs2)c1 | -0.22 K
10 | COc1ccc(C(CNC(=O)C2=COCCO2)c2c[nH]c3ccccc23)cc1 (centres unmarked) | -0.02 K
11 | O=C(CCCN1C(=O)c2cccc3cccc(c23)C1=O)NNC(=O)CC12CC3CC(CC(C3)C1)C2 | 0.02 K
12 | NC(=O)c1ncn(-c2ccncc2)c1N | -0.02 K
13 | O=C(C1=C(O)C(=O)N(CCCN2CCOCC2)C1c1ccc(Cl)c(Cl)c1)c1ccco1 (centres unmarked) | -0.03 K
14 | Cc1[nH]c2ccccc2c1C(=O)C(C)N1CCC(C(N)=O)CC1 (centres unmarked) | 0.19 K
15 | COc1ccc(C(C)=O)c2ccccc12 | -0.12 K
16 | CCCOc1cccc(C2C(C(=O)c3ccc(OC)cc3)=C(O)C(=O)N2CCCN2CCOCC2)c1 (centres unmarked) | -0.23 K
17 | CC(NS(C)(=O)=O)C(=O)O (centres unmarked) | -0.01 K
18 | CCOC(=O)c1sc(N(Cc2ccccc2)C(=O)CSc2nnc(C3CC3)n2N)nc1C | -0.13 K
19 | CCOC(=O)c1sc2nc(C)nc(N3CCN(S(=O)(=O)c4cccs4)CC3)c2c1C | -0.08 K
20 | CC(C)(C)c1ccc(COc2ccc3c4c(c(=O)oc3c2)CCC4)cc1 | -0.23 K
21 | Cc1ccc(N(C)S(=O)(=O)c2cccc(C(=O)OCc3ccc(C(C)(C)C)cc3)c2)cc1 | 0.09 K
22 | CC(OC(=O)C1=C(Nc2ccccc2)OCC1=O)c1ccccc1Cl (centres unmarked) | -0.02 K
23 | CC(c1ccc(-n2cnc3ccccc32)cc1)N(C)C(=S)Nc1ccccc1 (centres unmarked) | 0.07 K
24 | CON(C)C(=O)Cn1c2ccccc2c(=O)c2ccccc21 | -0.05 K

Row | Compound | TSA(without NAD+) / Primary screening (TSA) / delta Tm (K)
25 | CCCOc1cccc(C2C(C(=O)/C=C/c3ccco3)=C(O)C(=O)N2CCCN2CCOCC2)c1 (centres unmarked) | -0.01 K
26 | CCN(C(=O)CSc1nc(N)nc(N)n1)C1=CCCC1 | -0.08 K
27 | CCCc1nnn[nH]1 | -0.07 K
28 | CC1CCC(C(N)=O)CN1Cc1nc2c(F)cccc2[nH]1 (centres unmarked) | 0.12 K
29 | COc1cc(/C=C(/C#N)C(=O)NCCc2cnn(-c3ccccc3)c2)ccc1O | 0.05 K
30 | CC([NH3+])C(C)[NH3+] (centres unmarked) | -0.12 K
31 | O=C1c2cccc3cccc(c23)N1Cc1cc(-c2cccs2)on1 | 0.05 K
32 | CC(=O)N(c1ccc(C)c(C)c1)c1nc(/C=C(/CC(=O)O)c2nc3ccccc3s2)cs1 | 0.17 K
33 | NC(=O)Cc1ccc(NC(=O)c2cc(Br)ccc2Cl)cc1 | -0.11 K
34 | Cc1ccc(-c2noc(C(C)N3CCN(c4nc(C(F)(F)F)nc5ccccc45)CC3)n2)cc1 (centres unmarked) | 0.02 K
35 | O=C1CN(c2ncc(Br)cn2)C2CCCCC2N1 (centres unmarked) | -0.22 K
36 | O=C(CSC1CCS(=O)(=O)C1)Nc1nnc(SCc2c(Cl)cccc2Cl)s1 (centres unmarked) | -0.02 K
37 | CCC(C)C(C)N (centres unmarked) | -0.12 K
38 | Cn1ccc(NC(=O)CSc2ccc3c4c(cccc24)C(=O)c2ccccc2-3)n1 | 0.18 K
39 | Cc1cc(C(=O)NCc2nnc3ccccn23)c(C)n1-c1ccccc1 | -0.27 K
40 | CCOCc1cn(CC(=O)c2ccc(OC)cc2)c(C)nc1=N | 0.08 K
41 | CCOc1ccc(Oc2ccc(NS(=O)(=O)c3cc(C(=O)O)ccc3Cl)cc2)cc1 | 0.08 K
42 | NC(=O)C1CCN(C(=O)c2c[nH]c3ccc(Br)cc23)CC1 | 0.02 K
43 | O=C(Cc1cccc2ccccc12)Nc1ccccc1Cc1ccccc1 | -0.04 K
44 | CCONC(=O)c1cccc(I)c1 | 0.08 K
45 | COc1ccc(CCn2c(C)cc(C(=O)COC(=O)C34CC5CC(CC(O)(C5)C3)C4)c2C)cc1 | -0.23 K
46 | CCCOc1ccc(C(=O)C2=C(O)C(=O)N(CCCN3CCOCC3)C2c2ccc(C)o2)cc1 (centres unmarked) | 0.17 K
47 | CCCCCOc1ccc(C(=O)CCC(=O)OCC(=O)Nc2cccc(S(=O)(=O)/N=C3/CCCCCN3)c2)cc1 | -0.03 K

Laid out differently: entries from further up.
Cn1ccc(NC(=O)CSc2ccc3c4c(cccc24)C(=O)c2ccccc2-3)n1
  TSA(without NAD+) / Primary screening (TSA) / delta Tm (K): 0.18 K
Cc1cc(C(=O)NCc2nnc3ccccn23)c(C)n1-c1ccccc1
  TSA(without NAD+) / Primary screening (TSA) / delta Tm (K): -0.27 K
